Results are given in words; binding and its absence hold for the method and conditions named. For some assays here: Binding seen in cells or lysates may run through a third protein. Some entries that bind do so weakly or less than the wild type. Where a sequence is shown, tags or fusion partners need not be part of it.
T1: AtHAK1, FLAG-tagged copy and 3xHA-tagged copy, in Nicotiana benthamiana leaf extract (Arabidopsis) (UniProt C0LGD7)
T1 sequence: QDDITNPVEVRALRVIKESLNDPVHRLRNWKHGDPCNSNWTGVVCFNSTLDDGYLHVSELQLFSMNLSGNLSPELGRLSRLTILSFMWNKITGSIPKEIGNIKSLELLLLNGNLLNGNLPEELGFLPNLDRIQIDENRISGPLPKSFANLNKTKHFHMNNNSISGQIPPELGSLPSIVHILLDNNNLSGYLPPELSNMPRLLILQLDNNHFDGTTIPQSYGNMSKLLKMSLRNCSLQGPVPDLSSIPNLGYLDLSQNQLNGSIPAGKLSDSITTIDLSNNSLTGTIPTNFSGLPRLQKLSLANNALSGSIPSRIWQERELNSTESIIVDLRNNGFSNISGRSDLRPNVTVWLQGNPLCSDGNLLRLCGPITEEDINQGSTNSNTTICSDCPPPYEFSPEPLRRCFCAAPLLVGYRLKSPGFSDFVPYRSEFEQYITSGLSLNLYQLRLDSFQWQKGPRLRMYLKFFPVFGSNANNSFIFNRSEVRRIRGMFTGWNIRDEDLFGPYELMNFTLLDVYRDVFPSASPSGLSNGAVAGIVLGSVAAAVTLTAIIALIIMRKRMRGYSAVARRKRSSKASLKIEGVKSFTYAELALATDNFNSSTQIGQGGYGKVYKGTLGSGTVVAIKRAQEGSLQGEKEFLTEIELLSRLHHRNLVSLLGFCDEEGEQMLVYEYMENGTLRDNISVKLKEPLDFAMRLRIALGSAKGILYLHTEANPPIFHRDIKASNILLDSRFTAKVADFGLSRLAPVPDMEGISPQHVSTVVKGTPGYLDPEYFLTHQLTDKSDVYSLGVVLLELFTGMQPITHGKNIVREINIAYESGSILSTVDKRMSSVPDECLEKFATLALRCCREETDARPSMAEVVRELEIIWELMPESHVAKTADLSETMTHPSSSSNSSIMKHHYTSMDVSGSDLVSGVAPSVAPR

T2: AtHAK1 (Arabidopsis HDS-associated receptor-like kinase 1), cell-free synthesised, biotinylated (bls) copy and FLAG-tagged copy (Arabidopsis) (UniProt C0LGD7)
T2 sequence (chain, biotin on the biotin ligation site (bls copy only)): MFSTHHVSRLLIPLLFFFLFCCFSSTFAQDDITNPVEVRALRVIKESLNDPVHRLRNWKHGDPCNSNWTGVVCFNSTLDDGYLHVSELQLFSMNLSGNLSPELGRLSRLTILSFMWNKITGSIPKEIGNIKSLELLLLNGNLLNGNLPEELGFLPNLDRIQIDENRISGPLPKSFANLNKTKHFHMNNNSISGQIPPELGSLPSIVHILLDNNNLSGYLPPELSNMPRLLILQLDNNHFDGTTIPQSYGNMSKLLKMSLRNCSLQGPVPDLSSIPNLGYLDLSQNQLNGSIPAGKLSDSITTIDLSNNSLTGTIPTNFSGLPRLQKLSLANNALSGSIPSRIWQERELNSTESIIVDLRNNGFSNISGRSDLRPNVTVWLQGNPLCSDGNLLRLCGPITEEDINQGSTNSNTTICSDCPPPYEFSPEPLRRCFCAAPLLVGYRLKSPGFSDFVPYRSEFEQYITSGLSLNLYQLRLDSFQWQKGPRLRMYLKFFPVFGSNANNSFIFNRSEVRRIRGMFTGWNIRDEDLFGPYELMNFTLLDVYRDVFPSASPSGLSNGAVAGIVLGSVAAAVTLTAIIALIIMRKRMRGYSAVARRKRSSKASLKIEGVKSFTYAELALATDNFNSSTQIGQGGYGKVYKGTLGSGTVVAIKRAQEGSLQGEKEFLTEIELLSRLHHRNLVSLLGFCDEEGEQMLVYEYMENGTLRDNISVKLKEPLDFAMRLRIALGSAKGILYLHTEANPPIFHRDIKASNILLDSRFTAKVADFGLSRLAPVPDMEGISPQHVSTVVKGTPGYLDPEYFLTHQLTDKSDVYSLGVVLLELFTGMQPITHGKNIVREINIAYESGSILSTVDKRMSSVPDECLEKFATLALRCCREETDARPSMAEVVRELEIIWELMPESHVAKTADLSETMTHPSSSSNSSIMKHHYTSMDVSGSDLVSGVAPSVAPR

T3: AtHAK1 fused to the N-terminal or the C-terminal fragment of Venus, in Nicotiana benthamiana leaf cells (Arabidopsis) (UniProt C0LGD7)
T3 sequence: T1 sequence

B1: AtHAK1, FLAG-tagged copy and 3xHA-tagged copy, in Nicotiana benthamiana leaf extract (receptor, UniProt C0LGD7 29-953)
chain: T1 sequence
B2: AtPBL27, 3xHA-tagged, in Nicotiana benthamiana leaf extract (protein, UniProt Q1PDV6 1-513)
chain: MSGCLPCFGSSAKDAASKDSVKKELSAKDGSVTQSHHISLDKSKSRRGPEQKKELTAPKEGPTAHIAAQTFTFRELAAATKNFRPECLLGEGGFGRVYKGRLETTGQIVAVKQLDRNGLQGNREFLVEVLMLSLLHHPNLVNLIGYCADGDQRLLVYEYMPLGSLEDHLHDLPPDKEPLDWSTRMTIAAGAAKGLEYLHDKANPPVIYRDLKSSNILLGDGYHPKLSDFGLAKLGPVGDKTHVSTRVMGTYGYCAPEYAMTGQLTLKSDVYSFGVVFLELITGRKAIDNARAPGEHNLVAWARPLFKDRRKFPKMADPSLQGRYPMRGLYQALAVAAMCLQEQAATRPLIGDVVTALTYLASQTFDPNAPSGQNSRSGSGPPFIRTRDDRRSLGDGSSLDSPAETRSRLGSPATHKNSPDYRRRDMVREVNAGSEGGSETGGGSGRKWGLSDLEGQESQRGSPASVGRSSRGTPRNRDLDRERAVAEAKVWGENWRERKRATNGPGSFDSTND
B3: AtHAK1 (Arabidopsis HDS-associated receptor-like kinase 1), cell-free synthesised, biotinylated (bls) copy and FLAG-tagged copy (receptor, UniProt C0LGD7 1-953)
chain: T2 sequence (chain, biotin on the biotin ligation site (bls copy only))
modifications: biotin on the biotin ligation site (bls copy only)
B4: AtHAK1 fused to the N-terminal or the C-terminal fragment of Venus, in Nicotiana benthamiana leaf cells (receptor, UniProt C0LGD7 29-953)
chain: T1 sequence
B5: AtPBL27 fused to the C-terminal fragment of Venus, in Nicotiana benthamiana leaf cells (protein, UniProt Q1PDV6 1-513)
chain: B2 chain

How the values were obtained:
[1] = target: T1, AtHAK1, FLAG-tagged copy and 3xHA-tagged copy, in Nicotiana benthamiana leaf extract (Arabidopsis); assay: co-IP; FLAG- and 3xHA-tagged proteins expressed in N. benthamiana leaves; total protein extract (50 mM Tris-HCl pH 7.5, 150 mM NaCl, 1% NP-40) precipitated overnight at 4 °C with anti-DYKDDDDK-tag magnetic beads; blots with anti-HA and anti-FLAG
[2] = target: T2, AtHAK1 (Arabidopsis HDS-associated receptor-like kinase 1), cell-free synthesised, biotinylated (bls) copy and FLAG-tagged copy (Arabidopsis); assay: AlphaScreen or HTRF; AlphaScreen between biotinylated and FLAG-conjugated proteins synthesised in a cell-free system
[3] = target: T3, AtHAK1 fused to the N-terminal or the C-terminal fragment of Venus, in Nicotiana benthamiana leaf cells (Arabidopsis); assay: split reporter; BiFC with nVenus and cVenus fusions co-expressed in N. benthamiana leaf cells by A. tumefaciens-mediated transient expression

Row | Binder | binding [1] | binding [3] | other results
1 | B1 | binds | – | –
2 | B2 | binds | – | –
3 | B3 | – | – | binding [2]: binds
4 | B4 | – | binds | –
5 | B5 | – | binds | –

From paper PMC7210110
